According to paper PMC5120349, “Reconstitution of Targeted Deadenylation by the Ccr4-Not Complex and the YTH Domain Protein Mmi1”:

Tests used:
[1] = biological target: T1, Caf1 (StrepII-tagged, recombinant, S. pombe) (S. pombe) (UniProt O74856); assay: SEC-MALS; purified recombinant Ccr4-Not complex (co-expressed in Sf9); monodisperse; both purified
T1 sequence: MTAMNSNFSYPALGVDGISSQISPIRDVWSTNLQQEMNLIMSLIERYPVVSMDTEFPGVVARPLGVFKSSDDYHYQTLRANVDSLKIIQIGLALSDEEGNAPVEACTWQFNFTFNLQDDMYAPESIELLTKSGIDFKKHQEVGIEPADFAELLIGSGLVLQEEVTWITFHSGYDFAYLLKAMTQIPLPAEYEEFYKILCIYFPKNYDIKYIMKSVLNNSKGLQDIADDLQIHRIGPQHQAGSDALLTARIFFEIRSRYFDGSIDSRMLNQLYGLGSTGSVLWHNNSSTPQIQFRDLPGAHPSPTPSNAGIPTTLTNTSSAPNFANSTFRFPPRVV

[2] = biological target: T1, Caf1 (StrepII-tagged, recombinant, S. pombe) (S. pombe); assay: co-purification (Strep-Tactin affinity, anion exchange, size exclusion chromatography); subunits co-expressed from a single baculovirus in Sf9 cells; captured by the StrepII tag on Caf1; HEPES pH 8.0, 150 mM NaCl, 2 mM Mg(OAc)2; SDS-PAGE of the purified complex

binding [1]: binds
binding [2]: binds
Substance: Not4 (recombinant, S. pombe)

No constants are given. Whether binding was seen depends on the method and setting. A result given as binding can be weak or reduced; the word gives no strength. Where a sequence is shown, tags or fusion partners need not be part of it. For some assays here: In cells and extracts the contact can be indirect.
